Reference: article doi:10.1101/2023.08.03.551875
These are yes or no findings as the source states them, for the method shown. In cells and extracts the contact can be indirect. Some results given as binding are weak or reduced against the parent protein; the word gives no strength. For part of these data: Where a sequence is shown, tags or fusion partners need not be part of it.

Sequences of proteins named here, by UniProt entry; tags and fusion partners are left off.
UniProt P04050, whole entry: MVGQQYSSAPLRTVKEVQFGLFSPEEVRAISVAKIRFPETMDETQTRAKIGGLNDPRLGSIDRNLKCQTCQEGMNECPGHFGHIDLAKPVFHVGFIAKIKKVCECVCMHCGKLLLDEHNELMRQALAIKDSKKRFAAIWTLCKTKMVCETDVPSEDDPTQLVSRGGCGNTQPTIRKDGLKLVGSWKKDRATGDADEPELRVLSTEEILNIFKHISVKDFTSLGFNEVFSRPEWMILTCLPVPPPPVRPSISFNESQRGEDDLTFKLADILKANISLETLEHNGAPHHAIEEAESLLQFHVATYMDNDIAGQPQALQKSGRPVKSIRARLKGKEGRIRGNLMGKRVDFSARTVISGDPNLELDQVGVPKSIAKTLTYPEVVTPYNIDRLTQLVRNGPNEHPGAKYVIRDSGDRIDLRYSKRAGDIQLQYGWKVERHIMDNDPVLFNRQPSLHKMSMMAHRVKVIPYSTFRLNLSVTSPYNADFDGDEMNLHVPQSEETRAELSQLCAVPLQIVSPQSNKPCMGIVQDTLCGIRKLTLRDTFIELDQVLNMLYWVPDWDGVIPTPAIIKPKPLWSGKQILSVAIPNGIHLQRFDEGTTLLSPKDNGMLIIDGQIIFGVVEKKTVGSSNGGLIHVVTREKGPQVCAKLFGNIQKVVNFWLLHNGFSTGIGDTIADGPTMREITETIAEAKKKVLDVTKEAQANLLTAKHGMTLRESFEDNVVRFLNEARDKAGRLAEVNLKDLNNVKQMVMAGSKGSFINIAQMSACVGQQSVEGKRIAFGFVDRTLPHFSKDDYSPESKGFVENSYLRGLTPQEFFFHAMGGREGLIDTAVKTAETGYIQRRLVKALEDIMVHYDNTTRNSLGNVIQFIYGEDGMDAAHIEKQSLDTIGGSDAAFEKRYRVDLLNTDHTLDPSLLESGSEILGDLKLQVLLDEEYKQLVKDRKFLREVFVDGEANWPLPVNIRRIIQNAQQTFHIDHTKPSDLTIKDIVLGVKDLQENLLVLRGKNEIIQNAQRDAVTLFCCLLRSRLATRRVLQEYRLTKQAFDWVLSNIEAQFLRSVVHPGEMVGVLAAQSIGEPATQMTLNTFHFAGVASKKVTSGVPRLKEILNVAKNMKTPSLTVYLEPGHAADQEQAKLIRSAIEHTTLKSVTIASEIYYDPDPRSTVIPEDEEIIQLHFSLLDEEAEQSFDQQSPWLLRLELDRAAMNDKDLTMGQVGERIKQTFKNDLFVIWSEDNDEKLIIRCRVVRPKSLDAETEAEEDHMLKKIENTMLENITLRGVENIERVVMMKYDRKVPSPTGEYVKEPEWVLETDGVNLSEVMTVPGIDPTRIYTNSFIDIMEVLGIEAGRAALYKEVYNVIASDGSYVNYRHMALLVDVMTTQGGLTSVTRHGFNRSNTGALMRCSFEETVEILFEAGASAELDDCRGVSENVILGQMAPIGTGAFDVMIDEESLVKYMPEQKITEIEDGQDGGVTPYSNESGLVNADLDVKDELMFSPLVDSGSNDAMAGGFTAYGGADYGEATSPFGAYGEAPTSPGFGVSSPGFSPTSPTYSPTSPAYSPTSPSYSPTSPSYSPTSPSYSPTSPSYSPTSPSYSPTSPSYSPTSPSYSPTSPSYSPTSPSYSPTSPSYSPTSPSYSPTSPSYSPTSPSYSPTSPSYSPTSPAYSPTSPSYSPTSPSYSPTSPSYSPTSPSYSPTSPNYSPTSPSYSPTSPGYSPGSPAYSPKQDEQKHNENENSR

T1: Syf1-TAP (S. cerevisiae) (UniProt Q04048)
T1 sequence: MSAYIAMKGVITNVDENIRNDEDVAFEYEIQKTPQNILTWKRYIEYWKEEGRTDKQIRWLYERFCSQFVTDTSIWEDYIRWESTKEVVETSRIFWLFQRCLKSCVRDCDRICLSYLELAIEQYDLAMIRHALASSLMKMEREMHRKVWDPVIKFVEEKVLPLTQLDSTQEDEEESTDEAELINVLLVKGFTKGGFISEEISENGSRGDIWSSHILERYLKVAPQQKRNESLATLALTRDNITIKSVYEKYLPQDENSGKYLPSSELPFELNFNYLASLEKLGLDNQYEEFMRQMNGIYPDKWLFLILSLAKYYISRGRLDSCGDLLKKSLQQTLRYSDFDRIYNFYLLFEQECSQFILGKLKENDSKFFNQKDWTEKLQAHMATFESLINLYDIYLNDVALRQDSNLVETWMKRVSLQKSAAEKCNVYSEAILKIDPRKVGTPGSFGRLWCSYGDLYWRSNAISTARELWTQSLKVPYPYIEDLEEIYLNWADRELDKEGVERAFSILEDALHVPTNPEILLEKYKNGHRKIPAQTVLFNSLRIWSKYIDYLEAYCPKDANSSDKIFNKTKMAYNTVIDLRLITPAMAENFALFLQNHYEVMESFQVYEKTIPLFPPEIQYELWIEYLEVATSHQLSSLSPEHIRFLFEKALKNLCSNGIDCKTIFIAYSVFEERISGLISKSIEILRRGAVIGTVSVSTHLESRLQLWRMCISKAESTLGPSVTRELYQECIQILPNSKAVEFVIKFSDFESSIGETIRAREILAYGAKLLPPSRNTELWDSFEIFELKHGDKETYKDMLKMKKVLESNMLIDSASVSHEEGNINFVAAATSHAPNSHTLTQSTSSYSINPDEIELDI

T2: N-terminally TAP-tagged Hpr1 (S. cerevisiae) (UniProt P17629)
T2 sequence: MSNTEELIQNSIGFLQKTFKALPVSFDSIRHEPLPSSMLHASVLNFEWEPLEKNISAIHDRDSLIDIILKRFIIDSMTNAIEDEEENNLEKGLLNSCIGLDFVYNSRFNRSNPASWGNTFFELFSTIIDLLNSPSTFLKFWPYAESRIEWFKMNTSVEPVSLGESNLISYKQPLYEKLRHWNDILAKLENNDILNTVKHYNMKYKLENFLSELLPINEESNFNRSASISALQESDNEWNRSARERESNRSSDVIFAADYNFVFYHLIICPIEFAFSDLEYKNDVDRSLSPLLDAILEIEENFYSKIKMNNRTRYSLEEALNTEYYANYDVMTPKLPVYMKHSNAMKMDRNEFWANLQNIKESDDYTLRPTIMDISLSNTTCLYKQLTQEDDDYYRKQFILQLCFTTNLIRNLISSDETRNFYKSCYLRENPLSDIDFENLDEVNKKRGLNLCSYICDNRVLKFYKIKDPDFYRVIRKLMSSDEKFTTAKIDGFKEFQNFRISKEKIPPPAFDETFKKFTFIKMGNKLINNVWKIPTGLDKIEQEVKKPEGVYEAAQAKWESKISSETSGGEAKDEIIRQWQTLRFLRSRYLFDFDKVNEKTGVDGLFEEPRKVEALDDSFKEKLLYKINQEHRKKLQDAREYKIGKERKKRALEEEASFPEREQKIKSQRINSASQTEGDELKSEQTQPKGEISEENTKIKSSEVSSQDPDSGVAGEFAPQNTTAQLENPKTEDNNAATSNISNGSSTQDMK

T3: Hpr1-TAP (C-terminal TAP tag) (S. cerevisiae) (UniProt P17629)
T3 sequence: T2 sequence

B1: HA-tagged Syf1 (protein, UniProt Q04048 1-859)
chain: T1 sequence

How the values were obtained:
Experiment in all cases: co-IP
Syf1-TAP (S. cerevisiae) = target: T1, Syf1-TAP (S. cerevisiae)
[1] = target: T2, N-terminally TAP-tagged Hpr1 (S. cerevisiae)
[2] = target: T3, Hpr1-TAP (C-terminal TAP tag) (S. cerevisiae)

Row | Molecule | binding (Syf1-TAP (S. cerevisiae)) | binding [1] | binding [2]
1 | Rpb1, the largest subunit of RNA polymerase II (from UniProt P04050 1-1733) | binds | – | –
2 | B1 | – | binds | binds
